This note sets out measurements from patent US20200000934.

This data set deals with VEGF. In words: binding assay. As to conditions: cap strand attached to NMOF (DBCO-azide); in vivo eye injection, 5 uL of 10 uM VEGF; Rhodamine 6G release rises in first 15 min, stable without VEGF; purified recombinant protein; label: Rhodamine 6G loaded in NMOF; variant of V7t1 anti-VEGF aptamer.

Construct, isoform or probe ends are uncertain for at least one entry.

In the case of “TGTGGGGGTGGACGGGCCGGGTAGA / TCTACCCGGCCC”, the binding result is on record as “binds”.
